Results taken from US20110097274A1, “Carbon-11 and fluorine-18 labeled radioligands for positron emission tomography (PET) imaging for the brain serotonin transporters” (priority 2002, published 2011).
“And” between values parts separate entries of the source, which are not always exact repeats. Identical values can stand only once.

System: SERT
Test: Baboon PET imaging: brain uptake, kinetic analysis and SERT parameters
Type: in vivo
Details: for Reproducibility of V3″ measurement (test/retest) Cingulate Cortex / Reproducibility of V3″ measurement (test/retest) Hippocampus / Reproducibility of V3″ measurement (test/retest) Midbrain / Reproducibility of V3″ measurement (test/retest) Occipital Cortex / Reproducibility of V3″ measurement (test/retest) Striatum / Reproducibility of V3″ measurement (test/retest) Temporal Cortex / Reproducibility of V3″ measurement (test/retest) Thalamus: absolute test−retest difference / average, mean ± SD of two test/retest pairs; for Reproducibility of V3″ measurement (test/retest) Average by tracer: average of all regions; for Minimal scanning time to reach time-independent measurement for VT, Cerebellum / Minimal scanning time to reach time-independent measurement for VT, Cingulate Cortex / Minimal scanning time to reach time-independent measurement for VT, Hippocampus / Minimal scanning time to reach time-independent measurement for VT, Midbrain / Minimal scanning time to reach time-independent measurement for VT, Occipital Cortex / Minimal scanning time to reach time-independent measurement for VT, Striatum / Minimal scanning time to reach time-independent measurement for VT, Temporal Cortex / Minimal scanning time to reach time-independent measurement for VT, Thalamus / Minimal scanning time to reach time-independent measurement for VT, Average by tracer: baboons; for Minimal scanning time to reach time-independent measurement for VT, Cerebellum / Minimal scanning time to reach time-independent measurement for VT, Cingulate Cortex / Minimal scanning time to reach time-independent measurement for VT, Hippocampus / Minimal scanning time to reach time-independent measurement for VT, Midbrain / Minimal scanning time to reach time-independent measurement for VT, Occipital Cortex / Minimal scanning time to reach time-independent measurement for VT, Striatum / Minimal scanning time to reach time-independent measurement for VT, Temporal Cortex / Minimal scanning time to reach time-independent measurement for VT, Thalamus: from analysis of four experiments; for Minimal scanning time to reach time-independent measurement for VT, Average by tracer: mean of all regions
Method: PET imaging protocol: PET experiments (n=20) were performed at Columbia University. Two adult male baboons (baboon A and B) were studied twice with each of the 5 radioligands (4 experiments per radioligand). All experiments took place within a 9-month period. Baboons A and B were 31 kg and 21 kg in weight at the beginning of the experimental period and 28 and 22 kg at the end, respectively. Test and retest experiments with the same radioligand were obtained on different days, with an average interval of 117±53 days.
Experiments were performed according to protocols approved by the Columbia-Presbyterian Medical Center Institutional Animal Care and Use Committee. Fasted animals were immobilized with ketamine (10 mg/kg i.m.), and anesthetized with 1.8% isoflurane via an endotracheal tube. Vital signs were monitored every 10 minutes and the temperature was kept constant at 37° C. with heated water blankets. An i.v. perfusion line was used for hydration and injection of radioligands and nonradioactive drugs. A catheter was inserted in a femoral artery for arterial blood sampling. Head was positioned at the center of the field of view as defined by imbedded laser lines. PET imaging was performed with the ECAT EXACT HR+PET scanner (Siemens/CTI, Knoxville, Tenn.). In 3D mode, this camera provides an in-plane resolution of 4.3 mm, 4.5 mm, 5.4 mm and 8.0 mm full width at half maximum (FWHM) at a distance of 0, 1, 10 and 20 cm from the center of the field of view, respectively (Brix et al., 1997). A 15 minute transmission scan was obtained prior to radioligand injection for attenuation correction. Activity was injected i.v. over 30 seconds. […] Emission data was collected in the 3D mode for 91 minutes as 21 successive frames of increasing duration (6*10 seconds, 2*1 minutes, 4*2 minutes, 2*5 minutes, and 7*10 minutes).
Image analysis: A Magnetic Resonance Image (MRI) of each baboon's brain was obtained for the purpose of identifying the regions of interest (ROI) (T1-weighted axial MRI sequence, acquired parallel to the anterior-posterior commissure, TR 34 msec, TE 5 msec, flip angle of 45 degrees, slice thickness is 1.5 mm, zero gap, matrix 1.5 mm×1 mm×1 mm voxels). The following regions were drawn on the MR images: cerebellum, midbrain, thalamus, striatum, hippocampus, temporal cortex, cingulate cortex and occipital cortex.
PET emission data were attenuation-corrected using the transmission scan, and frames were reconstructed using a Shepp filter (cutoff 0.5 cycles/projection rays). Reconstructed image files were then processed using the image analysis software MEDx (Sensor Systems, Inc., Sterling, Va.). An image was created by summing all the frames, and this summed image was used to define the registration parameters with the MR image, using between-modality automated image registration (AIR) algorithm (Woods et al., 1993). Registration parameters were then applied to the individual frames for registration to the MR data set. Regional boundaries were transferred to the individual registered PET frames, and time-activity curves were measured and decay-corrected. Right and left regions were averaged. For a given animal, the same regions were used for all radioligands.
Brain uptake: Total brain uptake was expressed as percentage of the injected dose per gram of tissue (% ID g^−1) in a region encompassing the entire brain. Regional peak time was defined as the mid-time of the frame associated with the highest activity value. To estimate the degree of wash-out from the brain captured during the scan interval (91 minutes), the decrease in activity from the peak frame to the last frame was calculated and expressed in percentage of the peak activity.
Kinetic analysis: Regional total distribution volumes (VT, mL g^−1) were derived with kinetic analysis of the regional time-activity curves, using the arterial plasma concentrations as input function. […]

| Compound | Reproducibility of V3″ measurement (test/retest) Cingulate Cortex [%] | Reproducibility of V3″ measurement (test/retest) Hippocampus [%] | Reproducibility of V3″ measurement (test/retest) Midbrain [%] | Reproducibility of V3″ measurement (test/retest) Occipital Cortex [%] | Reproducibility of V3″ measurement (test/retest) Striatum [%] | Reproducibility of V3″ measurement (test/retest) Temporal Cortex [%] | Reproducibility of V3″ measurement (test/retest) Thalamus [%] | Reproducibility of V3″ measurement (test/retest) Average by tracer [%] | Minimal scanning time to reach time-independent measurement for VT, Cerebellum [min] | Minimal scanning time to reach time-independent measurement for VT, Cingulate Cortex [min] | Minimal scanning time to reach time-independent measurement for VT, Hippocampus [min] | Minimal scanning time to reach time-independent measurement for VT, Midbrain [min] | Minimal scanning time to reach time-independent measurement for VT, Occipital Cortex [min] | Minimal scanning time to reach time-independent measurement for VT, Striatum [min] | Minimal scanning time to reach time-independent measurement for VT, Temporal Cortex [min] | Minimal scanning time to reach time-independent measurement for VT, Thalamus [min] | Minimal scanning time to reach time-independent measurement for VT, Average by tracer |
| --- | --- | --- | --- | --- | --- | --- | --- | --- | --- | --- | --- | --- | --- | --- | --- | --- | --- |
| CN(C)Cc1ccccc1Sc1ccc(I)cc1N [[^11C]ADAM] | 28 ± 19 | 20 ± 3 | 28 ± 4 | 63 ± 10 | 15 ± 7 | 32 ± 25 | 21 ± 5 | 30 ± 16 | 40 | 30 | 50 | 70 | 40 | 40 | 30 | 50 | 44 ± 13 min |
| CN([11CH3])Cc1ccccc1Sc1ccc(CF)cc1N [[^11C]AFM, [^11C]2-[2-(Dimethylaminomethyl)phenylthio]-5-fluoromethylphenylamine] | 14 ± 4 | 9 ± 5 | 10 ± 11 | 9 ± 5 | 5 ± 0 | 11 ± 10 | 3 ± 3 | 9 ± 4 | 30 | 50 | 80 | 70 | 60 | 70 | 70 | 70 | 62 ± 16 min and 63 ± 16 min |
| CN(C)Cc1ccccc1Sc1ccc(Br)cc1N [[^11C]DAPA] | 9 ± 1 | 8 ± 6 | 7 ± 6 | 7 ± 6 | 7 ± 9 | 10 ± 7 | 12 ± 8 | 9 ± 2 | 60 | 60 | 80 | 80 | 60 | 70 | 60 | 70 | 68 ± 9 min |
| CN(C)Cc1ccccc1Sc1ccc(C#N)cc1N [[^11C]DASB] | 14 ± 15 | 22 ± 12 | 15 ± 4 | 49 ± 43 | 13 ± 12 | 10 ± 14 | 15 ± 1 | 20 ± 13 | 30 | 30 | 30 | 60 | 40 | 30 | 30 | 40 | 36 ± 11 min |
| [11CH3]Sc1ccc([C@H]2CN3CCC[C@H]3c3ccccc32)cc1 [[^11C]McN 5652] | 10 ± 13 | 28 ± 8 | 31 ± 11 | 35 ± 1 | 30 ± 28 | 25 ± 19 | 25 ± 15 | 26 ± 8 | 60 | 60 | 70 | 70 | 60 | 60 | 70 | 60 | 62 ± 5 min and 64 ± 5 min |
